{"source": "PubChem BioAssay AID602313", "about": "(National Center for Advancing Translational Sciences (NCATS), 2012)", "note": "Where “and” joins values, the source holds several entries; their conditions need not be identical. Identical values can stand only once. Hit rate of the full screen: of about 390,000 compounds, about 760 (0.19%) were called active. The shares of active, inactive and inconclusive entries below differ from those in the screen. Calls come from the whole dose curve; as a rule, active = well fitted inhibition curve with a large enough effect; inconclusive = small, poorly fitted or top-dose-only effect; inactive = flat fitted curve, though single readings scatter. Where the call is inconclusive, the potency comes from a doubtful curve fit. Potency is the fitted concentration of half-maximal effect."}
{"test": "qHTS for Inhibitors of Vif-A3F Interactions: qHTS; note: nearly all actives have a fitted effect of over 65% in size; for activity, negative = active: % of control where 0% means no effect", "conditions": "HeLa A3F-eYFP + Vif (tagged APOBEC3F with the HIV-1 protein that degrades it), YFP fluorescence increase; series mostly up to 46.1 µM; activity, negative = active: at the top concentration", "how_it_was_run": "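HeLa cells stably expressing Vif plus C-terminally eYFP-tagged A3F were seeded, incubated overnight at 37 deg C, dosed with compound, incubated overnight again at 37 deg C. Yellow fluorescence (Ex 488/Em 500-530) reported blocked Vif-mediated A3F-eYFP degradation.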"}
{"smiles": "CC[C@@H]1C(c2cccc(C)c2)=NN(c2ccccc2)[C@H]1C(=O)N1CCOC1=O", "activity, negative = active": "inactive: -1.44%"}
{"smiles": "CC(C)(C)n1nnnc1C(c1cccnc1)N(Cc1ccccc1)Cc1ccco1", "note": "(stereo not given)", "Potency": "inconclusive: 1.12 µM [inhibitor, full curve, poor fit]"}
{"smiles": "COc1ccc2[nH]c3c(c2c1)CCN1C(=O)C(CC(=O)NCc2ccco2)C[C@H](C(=O)N(C(C)C)C(C)C)[C@@]31C", "note": "(stereo not given in full)", "activity, negative = active": "inactive: -2.62%"}
{"smiles": "Cc1ccccc1-n1cc(CNC(=O)CCc2nnc(CCc3ccccc3)o2)cn1", "Potency": "inconclusive: 3.16 µM [inhibitor, single point]"}
{"smiles": "Cc1cc(C)cc(OCC(=O)N/N=C/c2ccc([N+](=O)[O-])o2)c1", "Potency": "inconclusive: 3.16 µM [inhibitor, partial curve, poor fit]"}
{"smiles": "CN=c1scc(-c2ccccc2F)n1/N=C(\\C)c1cccnc1", "Potency": "inconclusive: 35.5 µM [inhibitor, partial curve, poor fit]"}
{"smiles": "Oc1ccccc1/C=N/NC(=S)NC1CC2CCC1C2", "note": "(stereo not given)", "Potency": "inconclusive: 3.55 µM [inhibitor, partial curve, poor fit]"}
{"smiles": "CCOc1ccc(/C=N/NC(=O)c2csc(C)c2C)c(OCC)c1", "Potency": "inconclusive: 6.31 µM [inhibitor, single point]"}
{"smiles": "CC(OC(=O)c1ccccc1Br)C(=O)Nc1nc(-c2cccc([N+](=O)[O-])c2)cs1", "note": "(stereo not given)", "Potency": "inconclusive: 35.5 µM [inhibitor, single point]"}
{"smiles": "O=C(COc1ccc(Br)cc1Cl)NC1CCCCC1", "Potency": "inconclusive: 35.5 µM [inhibitor, single point]"}
{"smiles": "CC(=C/c1ccc(C(C)C)cc1)/C=N/NC(=O)CSc1ccccn1", "Potency": "inconclusive: 35.5 µM [inhibitor, single point]"}
{"smiles": "CC(=O)Nc1ccc(S(=O)(=O)Nc2nc3ccccc3nc2Nc2ccc(N)cc2)cc1", "Potency": "active: 12.6 µM"}
{"smiles": "CCOc1ccc(NC(=O)CN2CCc3cc4c(cc3C2)OCCCO4)cc1OCC", "activity, negative = active": "inactive: 0.482%"}
{"smiles": "COc1ccc(CN2C(=O)c3cccc4cccc2c34)cc1F", "Potency": "inconclusive: 7.94 µM [inhibitor, partial curve, poor fit]"}
{"smiles": "c1ccc2c(c1)NCC1CCCN21", "note": "(stereo not given)", "Potency": "inconclusive: 25.1 µM [inhibitor, single point]"}
{"smiles": "COc1ccc(C(=O)NNC(=S)NC(=O)c2ccc(F)cc2)cc1Br", "activity, negative = active": "inactive: 1.48%"}
{"smiles": "Cc1cc(S(=O)(=O)N2CCCOC2CNC(=O)C(=O)NCc2ccco2)ccc1F", "note": "(stereo not given)", "activity, negative = active": "inactive: -11%"}
{"smiles": "CCOC(=O)COn1c(=O)c(-c2ccc(Br)cc2)[n+]([O-])c2ccccc21", "Potency": "active: 1.78 µM"}
{"smiles": "C/C(=N\\N=C(/N)SC1CC(=O)N(c2ccc(Cl)cc2)C1=O)c1cccs1", "note": "(stereo not given)", "Potency": "inconclusive: 22.4 µM [inhibitor, single point]"}
{"smiles": "Nc1nonc1-c1nc2ccccc2n1CC(=O)N/N=C\\c1ccc(-c2ccc(Cl)cc2)o1", "activity, negative = active": "inactive: -13.1%"}
{"smiles": "Nc1c(C(=O)N/N=C/c2cccnc2)oc2nc(-c3ccccc3)cc(-c3ccco3)c12", "Potency": "active: 10 µM"}
{"smiles": "CC(C)CN(C(=O)CCCSc1nc2ccccc2[nH]1)c1c(N)n(Cc2ccccc2)c(=O)[nH]c1=O", "Potency": "inconclusive: 7.94 µM [inhibitor, partial curve, poor fit]"}
{"smiles": "O=C(O)c1ccc(-c2ccc(/C=N/Nc3ccc([N+](=O)[O-])cc3)o2)cc1", "Potency": "inconclusive: 17.8 µM [inhibitor, partial curve, poor fit]"}
{"smiles": "COC(=O)c1cccnc1NC(=S)NC1CCCCC1", "Potency": "inconclusive: 22.4 µM [inhibitor, partial curve, poor fit]"}
{"smiles": "CCOc1ccccc1C1C(C#N)=C(N)SC(N)=C1C#N", "Potency": "inconclusive: 22.4 µM [inhibitor, single point]"}
{"smiles": "CCC(=O)Nc1ccccc1-c1nc2ccccc2n(C(C)C(=O)Nc2ccc(OC)cc2)c1=O", "note": "(stereo not given)", "Potency": "inconclusive: 15.8 µM [inhibitor, partial curve, poor fit]"}
{"smiles": "Cc1cccc(NC(=O)C2CCCN(S(=O)(=O)c3cccc4nonc34)C2)c1", "note": "(stereo not given)", "Potency": "inconclusive: 28.2 µM [inhibitor, single point] and inconclusive: 12.6 µM [inhibitor, partial curve, poor fit]"}
{"smiles": "O=C(NCCc1ccc(Cl)cc1)c1ccc(CSCc2ccccc2Cl)o1", "activity, negative = active": "inactive: 8.17%"}
{"smiles": "CC(C)N1CCN(Cc2cccn2-c2nccs2)CC1CCO", "note": "(stereo not given)", "Potency": "inconclusive: 4.47 µM [inhibitor, full curve]"}
{"smiles": "Cc1ccc(NC(=O)c2cccc(S(=O)(=O)N3CCCCC3)c2)cc1", "Potency": "inconclusive: 1.26 µM [inhibitor, full curve, poor fit]"}
{"smiles": "N#Cc1cc2ccccc2nc1SCC(=O)Nc1ccccc1N1CCOCC1", "Potency": "active: 25.1 µM"}
{"smiles": "COc1ccc(C(=O)NNC(=O)C2(C)CC2(Br)Br)cc1", "note": "(stereo not given)", "Potency": "inconclusive: 1.78 µM [inhibitor, partial curve, poor fit]"}
{"smiles": "Cc1ccc(S(=O)(=O)[N-]c2nc3ccccc3nc2-[n+]2cc(C)cc(C)c2)cc1", "Potency": "inconclusive: 11.2 µM [inhibitor, partial curve, poor fit]"}
{"smiles": "COc1cc(OC)c(NC(=O)CCn2cnc3onc(-c4ccc(F)cc4)c3c2=O)cc1Cl", "activity, negative = active": "inactive: -2.34%"}
{"smiles": "CCN(CC)C(=O)C1=C(C)N(Cc2ccc(C(C)(C)C)cc2)C(=O)C(CC(=O)NCC2CCCCC2)C1", "note": "(stereo not given)", "activity, negative = active": "inactive: -2.39%"}
{"smiles": "O=C1N/C(=C/c2ccc(N3CCOCC3)o2)C(=O)N1c1cccc(Cl)c1", "Potency": "inconclusive: 20 µM [inhibitor, partial curve, poor fit]"}
{"smiles": "CCN(CC)c1ccc(/C=N/Nc2nc(C)cc(C)n2)c(O)c1", "Potency": "inconclusive: 10 µM [inhibitor, partial curve, poor fit]"}
{"smiles": "Cc1ccc(C)c(N2CCN(C(=O)CCCCCn3c(=S)[nH]c4ccc(N5CCOCC5)cc4c3=O)CC2)c1", "Potency": "inconclusive: 35.5 µM [inhibitor, single point]"}
{"smiles": "CCN(CC)c1cc(C)nc2nc(-c3ccc(C)cc3)nn12", "activity, negative = active": "inactive: 3.25%"}
{"smiles": "CC(=O)N(/N=C1\\Sc2ccccc2C1=O)c1ccccc1C", "Potency": "inconclusive: 7.08 µM [inhibitor, partial curve, poor fit]"}
{"smiles": "O=C(C1CCN(Cc2ccc(F)cc2)CC1)N(CCc1ccccc1)Cc1ccccc1", "activity, negative = active": "inactive: -7.19%"}
{"smiles": "CCN(CC)S(=O)(=O)c1ccc(C(=O)/C=C/c2ccc(-c3ccc([N+](=O)[O-])cc3)o2)cc1", "Potency": "inconclusive: 28.2 µM [inhibitor, single point]"}
{"smiles": "CCn1nc(C)cc1C(=O)Sc1ccc(Cl)cc1Cl", "Potency": "inconclusive: 3.55 µM [inhibitor, partial curve, poor fit]"}
{"smiles": "c1ccc(-c2nccc(-c3ccc(-n4cnc5ccccc54)cc3)n2)cc1", "Potency": "inconclusive: 22.4 µM [inhibitor, single point]"}
{"smiles": "Cc1cccc(NCc2nc3ccccc3n2CCOc2ccccc2C)c1", "Potency": "inconclusive: 35.5 µM [inhibitor, single point]"}
{"smiles": "Cc1cccc(C)c1NC(=S)NC(C)CCc1ccccc1", "note": "(stereo not given)", "Potency": "active: 7.08 µM"}
{"smiles": "CCN(CC)CCn1c2ccccc2c2nc3ccc([N+](=O)[O-])cc3cc21", "Potency": "inconclusive: 25.1 µM [inhibitor, single point]"}
{"smiles": "Cc1cc(C(F)(F)F)n2nc(-c3cccs3)cc2n1", "Potency": "inconclusive: 14.1 µM [inhibitor, partial curve, poor fit]"}
{"smiles": "COc1cc(/C=C/c2nc3ccccc3c(=O)[nH]2)cc(Cl)c1O", "Potency": "inconclusive: 15.8 µM [inhibitor, partial curve, poor fit]"}
{"smiles": "Cc1ccccc1N1CCN(C2CCCN(C(=O)c3cc(C(C)C)[nH]n3)C2)CC1", "note": "(stereo not given)", "Potency": "inconclusive: 35.5 µM [inhibitor, single point]"}
{"smiles": "COc1ccc(CCNC(=O)/C=C\\c2ccccc2)cc1OC", "activity, negative = active": "inactive: -14.4%"}
{"smiles": "CC(C)(C)c1ccc(OCCNC(=O)c2ncn[nH]2)cc1", "Potency": "inconclusive: 35.5 µM [inhibitor, partial curve, poor fit]"}
{"smiles": "Cc1ccc2nc(-c3ccc(Cl)cc3)cc(C(=O)OCC(=O)c3ccccc3)c2c1", "activity, negative = active": "inactive: -2.28%"}
{"smiles": "CC(C)N1CCc2c(sc(NC(=O)c3ccc(S(=O)(=O)N(C)C4CCCCC4)cc3)c2C(N)=O)C1", "Potency": "inconclusive: 28.2 µM [inhibitor, single point]"}
{"smiles": "CC(=O)c1ccc(NC(=O)CSc2nc(=O)n(CCN3CCOCC3)c3c2CCC3)cc1", "Potency": "inconclusive: 2.82 µM [inhibitor, single point]"}
{"smiles": "Cc1ccc(Cc2c(-c3ccc(Cl)cc3)nc3cc(C)ccn23)cc1", "Potency": "inconclusive: 28.2 µM [inhibitor, single point]"}
{"smiles": "COc1cc(C2=NOC(C(=O)NCc3ccc(F)cc3)C2)cc(OC)c1OC", "note": "(stereo not given)", "activity, negative = active": "inactive: -15.5%"}
{"smiles": "COc1ccc(/C=C/c2cc(=O)c3cc(Cl)ccc3o2)cc1", "Potency": "inconclusive: 20 µM [inhibitor, single point]"}
{"smiles": "CCCCN=Cc1c(C)[nH]n(-c2ccccc2)c1=S", "Potency": "inconclusive: 6.31 µM [inhibitor, full curve]"}
{"smiles": "CC(=O)c1ccc(N2CCN(C(=O)CCNC(=O)Cn3ccc4ccccc4c3=O)CC2)cc1", "Potency": "inconclusive: 35.5 µM [inhibitor, single point]"}
{"smiles": "COc1ccc(/C(N)=N/OC(=O)c2ccco2)cc1", "activity, negative = active": "inactive: -19.7%"}
{"smiles": "CC1CCN(C(=O)c2cccc(NC(=O)c3cccs3)c2)CC1", "Potency": "inconclusive: 20 µM [inhibitor, single point]"}
{"smiles": "O=C(C[n+]1cc(-c2ccc(Br)cc2)n2c1CCCCC2)c1ccccc1", "activity, negative = active": "inactive: 5.21%"}
{"smiles": "CC(C)Nc1ccc(Nc2ccnc3cc4ccccc4cc23)cc1", "Potency": "inconclusive: 3.16 µM [inhibitor, single point]"}
{"smiles": "Cc1cccc(C)c1C(=NCCCN(C)C)c1ccccc1", "Potency": "inconclusive: 1.58 µM [inhibitor, partial curve, poor fit]"}
